# Assay results: PMC10575946
# Chains of the proteins cited; added tags and fusions are not shown.
# UniProt Q9UHB6: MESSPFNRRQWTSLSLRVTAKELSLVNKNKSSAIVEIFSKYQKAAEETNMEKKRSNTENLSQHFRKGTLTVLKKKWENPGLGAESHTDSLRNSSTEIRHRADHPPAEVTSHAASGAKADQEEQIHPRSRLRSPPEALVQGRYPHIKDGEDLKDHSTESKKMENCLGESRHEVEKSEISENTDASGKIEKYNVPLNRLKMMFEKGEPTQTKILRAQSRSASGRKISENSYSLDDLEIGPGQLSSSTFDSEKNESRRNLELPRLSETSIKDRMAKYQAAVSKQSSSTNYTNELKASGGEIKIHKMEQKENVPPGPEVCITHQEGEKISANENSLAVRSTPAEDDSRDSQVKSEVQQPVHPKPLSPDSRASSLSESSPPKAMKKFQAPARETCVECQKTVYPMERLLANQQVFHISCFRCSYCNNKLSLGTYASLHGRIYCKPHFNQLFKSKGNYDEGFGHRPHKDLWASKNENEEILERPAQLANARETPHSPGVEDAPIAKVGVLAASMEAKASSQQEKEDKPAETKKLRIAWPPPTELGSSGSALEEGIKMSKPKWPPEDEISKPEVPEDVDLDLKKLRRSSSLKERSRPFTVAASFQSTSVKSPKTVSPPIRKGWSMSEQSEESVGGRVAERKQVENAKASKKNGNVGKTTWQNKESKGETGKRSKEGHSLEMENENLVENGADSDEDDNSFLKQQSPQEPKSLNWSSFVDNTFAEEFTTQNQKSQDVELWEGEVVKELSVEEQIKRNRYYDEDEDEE
# Where a chain is given by its changes, count along the chain named. No constants are given. Whether binding was seen depends on the method and setting. In cells and extracts the contact can be indirect. Some binding calls cover weakened binding; strength is not graded here. Tags and fused reporters may be left off the sequences shown.
# B1: NPC1L1-3×Myc-EGFP (human Niemann-Pick C1-like 1, wild type) (protein, UniProt Q9UHC9-2 22-1332)
# chain: EPYTTIHQPGYCAFYDECGKNPELSGSLMTLSNVSCLSNTPARKITGDHLILLQKICPRLYTGPNTQACCSAKQLVSLEASLSITKALLTRCPACSDNFVNLHCHNTCSPNQSLFINVTRVAQLGAGQLPAVVAYEAFYQHSFAEQSYDSCSRVRVPAAATLAVGTMCGVYGSALCNAQRWLNFQGDTGNGLAPLDITFHLLEPGQAVGSGIQPLNEGVARCNESQGDDVATCSCQDCAASCPAIARPQALDSTFYLGQMPGSLVLIIILCSVFAVVTILLVGFRVAPARDKSKMVDPKKGTSLSDKLSFSTHTLLGQFFQGWGTWVASWPLTILVLSVIPVVALAAGLVFTELTTDPVELWSAPNSQARSEKAFHDQHFGPFFRTNQVILTAPNRSSYRYDSLLLGPKNFSGILDLDLLLELLELQERLRHLQVWSPEAQRNISLQDICYAPLNPDNTSLYDCCINSLLQYFQNNRTLLLLTANQTLMGQTSQVDWKDHFLYCANAPLTFKDGTALALSCMADYGAPVFPFLAIGGYKGKDYSEAEALIMTFSLNNYPAGDPRLAQAKLWEEAFLEEMRAFQRRMAGMFQVTFMAERSLEDEINRTTAEDLPIFATSYIVIFLYISLALGSYSSWSRVMVDSKATLGLGGVAVVLGAVMAAMGFFSYLGIRSSLVILQVVPFLVLSVGADNIFIFVLEYQRLPRRPGEPREVHIGRALGRVAPSMLLCSLSEAICFFLGALTPMPAVRTFALTSGLAVILDFLLQMSAFVALLSLDSKRQEASRLDVCCCVKPQELPPPGQGEGLLLGFFQKAYAPFLLHWITRGVVLLLFLALFGVSLYSMCHISVGLDQELALPKDSYLLDYFLFLNRYFEVGAPVYFVTTLGYNFSSEAGMNAICSSAGCNNFSFTQKIQYATEFPEQSYLAIPASSWVDDFIDWLTPSSCCRLYISGPNKDKFCPSTVNSLNCLKNCMSITMGSVRPSVEQFHKYLPWFLNDRPNIKCPKGGLAAYSTSVNLTSDGQVLTSRFMAYHKPLKNSQDYTEALRAARELAANITADLRKVPGTDPAFEVFPYTITNVFYEQYLTILPEGLFMLSLCLVPTFAVSCLLLGLDLRSGLLNLLSIVMILVDTVGFMALWGISYNAVSLINLVSAVGMSVEFVSHITRSFAISTKPTWLERAKEATISMGSAVFAGVAMTNLPGILVLGLAKAQLIQIFFFRLNLLITLLGLLHGLVFLPVILSYVGPDVNPALALEQKRAEEAVAAVMVASCPNHPSRVSTADNIYVNHSFEGSIKGAGAISNFLPNNGRQF
# B2: NPC1L1-3×Myc-EGFP-ΔA1272LAL (protein, UniProt Q9UHC9-2)
# chain: EPYTTIHQPGYCAFYDECGKNPELSGSLMTLSNVSCLSNTPARKITGDHLILLQKICPRLYTGPNTQACCSAKQLVSLEASLSITKALLTRCPACSDNFVNLHCHNTCSPNQSLFINVTRVAQLGAGQLPAVVAYEAFYQHSFAEQSYDSCSRVRVPAAATLAVGTMCGVYGSALCNAQRWLNFQGDTGNGLAPLDITFHLLEPGQAVGSGIQPLNEGVARCNESQGDDVATCSCQDCAASCPAIARPQALDSTFYLGQMPGSLVLIIILCSVFAVVTILLVGFRVAPARDKSKMVDPKKGTSLSDKLSFSTHTLLGQFFQGWGTWVASWPLTILVLSVIPVVALAAGLVFTELTTDPVELWSAPNSQARSEKAFHDQHFGPFFRTNQVILTAPNRSSYRYDSLLLGPKNFSGILDLDLLLELLELQERLRHLQVWSPEAQRNISLQDICYAPLNPDNTSLYDCCINSLLQYFQNNRTLLLLTANQTLMGQTSQVDWKDHFLYCANAPLTFKDGTALALSCMADYGAPVFPFLAIGGYKGKDYSEAEALIMTFSLNNYPAGDPRLAQAKLWEEAFLEEMRAFQRRMAGMFQVTFMAERSLEDEINRTTAEDLPIFATSYIVIFLYISLALGSYSSWSRVMVDSKATLGLGGVAVVLGAVMAAMGFFSYLGIRSSLVILQVVPFLVLSVGADNIFIFVLEYQRLPRRPGEPREVHIGRALGRVAPSMLLCSLSEAICFFLGALTPMPAVRTFALTSGLAVILDFLLQMSAFVALLSLDSKRQEASRLDVCCCVKPQELPPPGQGEGLLLGFFQKAYAPFLLHWITRGVVLLLFLALFGVSLYSMCHISVGLDQELALPKDSYLLDYFLFLNRYFEVGAPVYFVTTLGYNFSSEAGMNAICSSAGCNNFSFTQKIQYATEFPEQSYLAIPASSWVDDFIDWLTPSSCCRLYISGPNKDKFCPSTVNSLNCLKNCMSITMGSVRPSVEQFHKYLPWFLNDRPNIKCPKGGLAAYSTSVNLTSDGQVLTSRFMAYHKPLKNSQDYTEALRAARELAANITADLRKVPGTDPAFEVFPYTITNVFYEQYLTILPEGLFMLSLCLVPTFAVSCLLLGLDLRSGLLNLLSIVMILVDTVGFMALWGISYNAVSLINLVSAVGMSVEFVSHITRSFAISTKPTWLERAKEATISMGSAVFAGVAMTNLPGILVLGLAKAQLIQIFFFRLNLLITLLGLLHGLVFLPVILSYVGPDVNPEQKRAEEAVAAVMVASCPNHPSRVSTADNIYVNHSFEGSIKGAGAISNFLPNNGRQF
# B3: NPC1L1-3×Myc-EGFP-A1272LAL→4E (protein, UniProt Q9UHC9-2 22-1332)
# chain: B1 chain with A1251E, L1252E, A1253E, L1254E
# Target: LIMA1-FLAG (human LIM domain and actin binding 1) (human) (UniProt Q9UHB6)
# Test: co-IP; LIMA1-FLAG precipitated with anti-FLAG agarose beads (4 °C, 2 h) from CRL1601 cell lysates in NP40 buffer (0.5% NP40 in PBS, 5 mmol/L EDTA and EGTA), NPC1L1 variants found by immunoblotting; cells treated for 10 min before harvest with vehicle, BA mixture, GDCA, TDCA, TCA or 3% CDX
row,Binder,binding
1,B1,binds
2,B2,binds
3,B3,binds
